PubChem BioAssay AID504744 – Drosophila RNAi Screening Center | 2011
Screen: 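Identify dsRNAs that increase or decrease phospho-dAkt after insulin treatment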 (primary screen). Cells: Drosophila Kc167 cells. Reagents: long dsRNA against Drosophila genes, 250 ng dsRNA per well of a 384-well plate. Timing: 3 days of knock-down, then overnight serum-free starvation before stimulation. Challenge: bovine insulin at 387 nM for 10 minutes after 12 h without serum. Read-out: 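In-cell antibody fluorescence for phospho-dAkt in each well over DNA-dye signal, with log2 residuals expressed as z-scores adjusted for cell count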. Call rule: 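Under insulin, a gene counts as a hit if the average z-score of two replicates lies above 2.5 or below -2.5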.
The screen tested about 23,000 reagents; below is an unselected part of those with a known target gene and a result. In the full data, 98 (0.43%) got an active call. 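Only hit calls are given; the phospho-dAkt signals, z-scores and hit direction were not deposited.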 A plus sign joins genes that one reagent is predicted to hit.

The first 3 records, ahead of the listing:
no.	gene	dsRNA	call
1	Rpn8	DRSC04624	inactive
2	CG12782	DRSC04127	inactive
3	CG14810	DRSC17693	inactive

Results, from the first entry:
no.	gene	dsRNA	call
1	Rpn8	DRSC04624	inactive
2	CG12782	DRSC04127	inactive
3	CG14810	DRSC17693	inactive
4	CG14810	DRSC17961	inactive
5	Syx6	DRSC07032	inactive
6	Axud1	DRSC00270	inactive
7	CG33127	DRSC00011	inactive
8	CG14569	DRSC11730	inactive
9	RpS11	DRSC07289	inactive
10	RpS11	DRSC22700	inactive
11	loaf	DRSC09130	inactive
12	Idh3a	DRSC19446	inactive
13	CG6282	DRSC10616	inactive
14	Phk-3	DRSC04547	inactive
15	CG10208	DRSC14211	inactive
16	Usp7	DRSC18909	inactive
17	Usp7	DRSC19604	inactive
18	CG31897	DRSC01020	inactive
19	CG32645	DRSC19683	inactive
20	CG32645	DRSC19889	inactive
21	AstA-R2	DRSC14171	inactive
22	tomboy40	DRSC04918	inactive
23	CG3626	DRSC18318	inactive
24	CG44774	DRSC18342	active
25	CG14245	DRSC14740	inactive
26	CIA30	DRSC16266	inactive
27	CG11608	DRSC14334	inactive
28	Dh31	DRSC02196	inactive
29	RacGAP84C	DRSC12630	inactive
30	CG18265	DRSC10310	inactive
31	CG10947	DRSC02111	inactive
32	Rdh	DRSC08063	inactive
33	Rdh	DRSC08434	inactive
34	CycB	DRSC04605	inactive
35	nmo	DRSC08902	inactive
36	nmo	DRSC11377	inactive
37	l(2)k09022	DRSC02108	inactive
38	CG7025	DRSC03002	inactive
39	CG33306	DRSC01899	inactive
40	CG7509	DRSC08596	inactive
41	boly	DRSC21629	inactive
42	CG10710	DRSC09784	inactive
43	Tsen34	DRSC22932	inactive
44	mRpL47	DRSC16827	inactive
45	Zasp52	DRSC06269	inactive
46	Zasp52	DRSC07121	inactive
47	t-Grip84	DRSC10904	inactive
48	Ccdc58	DRSC10218	inactive
49	eEF1alpha1	DRSC07421	inactive
50	GluRIID	DRSC16723	inactive
51	Wdr92	DRSC10187	inactive
52	CG11878	DRSC14422	inactive
53	zyd	DRSC20716	inactive
54	CG14154	DRSC10156	inactive
55	CG32305	DRSC08614	inactive
56	CG14644	DRSC12230	inactive
57	CG17029	DRSC10240	inactive
58	yip3	DRSC04724	inactive
59	BORCS5	DRSC19427	inactive
60	CG14280	DRSC14761	inactive
61	Edc3	DRSC10620	inactive
62	CG13605	DRSC14608	inactive
63	CG13427	DRSC06389	inactive
64	CG8299	DRSC07139	inactive
65	CG7458	DRSC11829	inactive
66	CG7458	DRSC21340	inactive
67	RpS27A	DRSC03421	inactive
68	Pgi	DRSC07507	inactive
69	CG10903	DRSC14281	inactive
70	RpL4	DRSC16833	inactive
71	Sf3b5	DRSC14460	inactive
72	galla-1	DRSC05987	inactive
73	CG3502 + CG9863	DRSC04578	inactive
74	Aduk	DRSC16451	inactive
75	Mst33A	DRSC03371	inactive
76	Mkp + CG34140	DRSC08585	inactive
77	sloth2 + sloth1	DRSC17922	inactive
78	sloth2 + sloth1	DRSC17923	inactive
79	Or10a	DRSC20264	inactive
80	CG17350	DRSC02611	inactive
81	TBC1D23	DRSC00657	inactive
82	CG5662	DRSC19957	inactive
83	Mgat2	DRSC16347	inactive
84	Dnz1	DRSC03317	inactive
85	CG5455	DRSC15805	inactive
86	Sec31	DRSC07131	inactive
87	CG9875	DRSC04585	inactive
88	Daao1	DRSC06131	inactive
89	Ect3	DRSC15462	inactive
90	Arf4	DRSC17195	inactive
91	tld	DRSC17084	inactive
92	CG6321	DRSC10623	inactive
93	Rgl	DRSC11267	inactive
94	Sgs8	DRSC11282	inactive
95	CG12783	DRSC14538	inactive
96	rumi	DRSC15177	inactive
97	Mcm3	DRSC18679	inactive
98	Hydr1	DRSC07063	inactive
99	Polr2C	DRSC03415	inactive
100	CG4497	DRSC02754	inactive
101	alpha-Spec	DRSC08704	inactive
102	Slc45-1	DRSC10427	inactive
103	eIF4E4	DRSC09701	inactive
104	dpa	DRSC07604	inactive
105	S-Lap5	DRSC06732	inactive
106	Pal1	DRSC06106	inactive
107	sro	DRSC14469	inactive
108	botv	DRSC05949	inactive
109	CG14142	DRSC10145	inactive
110	eIF2Bgamma	DRSC07100	inactive
111	Ac76E	DRSC09642	inactive
112	Ac76E	DRSC09662	inactive
113	CG8617	DRSC07223	inactive
114	Arms	DRSC03856	inactive
115	Arms	DRSC03857	inactive
116	Arms	DRSC04052	inactive
117	Arms	DRSC04256	inactive
118	CG11035	DRSC14287	inactive
119	CG33128	DRSC00294	inactive
120	CG17065	DRSC20544	inactive
121	CG14355	DRSC14818	inactive
122	CG14153	DRSC10155	inactive
123	CG14153	DRSC22595	inactive
124	jhamt	DRSC01985	inactive
125	CG42449	DRSC18084	inactive
126	CG11317	DRSC14299	inactive
127	CG16719	DRSC10222	inactive
128	Grx3	DRSC02966	inactive
129	CG17549	DRSC02625	inactive
130	Taf7	DRSC15445	inactive
131	RhoGAP16F	DRSC20025	inactive
132	Snx6	DRSC03081	inactive
133	Tsp42Eq	DRSC06180	inactive
134	TrissinR	DRSC02334	inactive
135	TrissinR	DRSC02335	inactive
136	TrissinR	DRSC02336	inactive
137	SNRPG	DRSC20207	inactive
138	l(3)mbt	DRSC16983	inactive
139	CG30375	DRSC06834	inactive
140	Cda5	DRSC00003	inactive
141	Cda5	DRSC00529	inactive
142	Cda5	DRSC00532	inactive
143	Cda5	DRSC21330	inactive
144	CG15629	DRSC00464	inactive
145	eIF3c	DRSC06905	inactive
146	CG12470	DRSC18620	inactive
147	ND1 (retired record)	DRSC21273	inactive
148	TwdlS	DRSC14737	inactive
149	apolpp	DRSC17216	inactive
150	SecS	DRSC12222	inactive
151	CG34299	DRSC13974	inactive
152	CG17734	DRSC15256	inactive
153	plum	DRSC16054	inactive
154	her	DRSC03543	inactive
155	4E-T	DRSC17201	inactive
156	4E-T	DRSC17208	inactive
157	CG14949	DRSC08408	inactive
